{"sequences": {"note": "Sequences of proteins named here, by UniProt entry; tags and fusion partners are left off.", "UniProt P15389, whole entry": "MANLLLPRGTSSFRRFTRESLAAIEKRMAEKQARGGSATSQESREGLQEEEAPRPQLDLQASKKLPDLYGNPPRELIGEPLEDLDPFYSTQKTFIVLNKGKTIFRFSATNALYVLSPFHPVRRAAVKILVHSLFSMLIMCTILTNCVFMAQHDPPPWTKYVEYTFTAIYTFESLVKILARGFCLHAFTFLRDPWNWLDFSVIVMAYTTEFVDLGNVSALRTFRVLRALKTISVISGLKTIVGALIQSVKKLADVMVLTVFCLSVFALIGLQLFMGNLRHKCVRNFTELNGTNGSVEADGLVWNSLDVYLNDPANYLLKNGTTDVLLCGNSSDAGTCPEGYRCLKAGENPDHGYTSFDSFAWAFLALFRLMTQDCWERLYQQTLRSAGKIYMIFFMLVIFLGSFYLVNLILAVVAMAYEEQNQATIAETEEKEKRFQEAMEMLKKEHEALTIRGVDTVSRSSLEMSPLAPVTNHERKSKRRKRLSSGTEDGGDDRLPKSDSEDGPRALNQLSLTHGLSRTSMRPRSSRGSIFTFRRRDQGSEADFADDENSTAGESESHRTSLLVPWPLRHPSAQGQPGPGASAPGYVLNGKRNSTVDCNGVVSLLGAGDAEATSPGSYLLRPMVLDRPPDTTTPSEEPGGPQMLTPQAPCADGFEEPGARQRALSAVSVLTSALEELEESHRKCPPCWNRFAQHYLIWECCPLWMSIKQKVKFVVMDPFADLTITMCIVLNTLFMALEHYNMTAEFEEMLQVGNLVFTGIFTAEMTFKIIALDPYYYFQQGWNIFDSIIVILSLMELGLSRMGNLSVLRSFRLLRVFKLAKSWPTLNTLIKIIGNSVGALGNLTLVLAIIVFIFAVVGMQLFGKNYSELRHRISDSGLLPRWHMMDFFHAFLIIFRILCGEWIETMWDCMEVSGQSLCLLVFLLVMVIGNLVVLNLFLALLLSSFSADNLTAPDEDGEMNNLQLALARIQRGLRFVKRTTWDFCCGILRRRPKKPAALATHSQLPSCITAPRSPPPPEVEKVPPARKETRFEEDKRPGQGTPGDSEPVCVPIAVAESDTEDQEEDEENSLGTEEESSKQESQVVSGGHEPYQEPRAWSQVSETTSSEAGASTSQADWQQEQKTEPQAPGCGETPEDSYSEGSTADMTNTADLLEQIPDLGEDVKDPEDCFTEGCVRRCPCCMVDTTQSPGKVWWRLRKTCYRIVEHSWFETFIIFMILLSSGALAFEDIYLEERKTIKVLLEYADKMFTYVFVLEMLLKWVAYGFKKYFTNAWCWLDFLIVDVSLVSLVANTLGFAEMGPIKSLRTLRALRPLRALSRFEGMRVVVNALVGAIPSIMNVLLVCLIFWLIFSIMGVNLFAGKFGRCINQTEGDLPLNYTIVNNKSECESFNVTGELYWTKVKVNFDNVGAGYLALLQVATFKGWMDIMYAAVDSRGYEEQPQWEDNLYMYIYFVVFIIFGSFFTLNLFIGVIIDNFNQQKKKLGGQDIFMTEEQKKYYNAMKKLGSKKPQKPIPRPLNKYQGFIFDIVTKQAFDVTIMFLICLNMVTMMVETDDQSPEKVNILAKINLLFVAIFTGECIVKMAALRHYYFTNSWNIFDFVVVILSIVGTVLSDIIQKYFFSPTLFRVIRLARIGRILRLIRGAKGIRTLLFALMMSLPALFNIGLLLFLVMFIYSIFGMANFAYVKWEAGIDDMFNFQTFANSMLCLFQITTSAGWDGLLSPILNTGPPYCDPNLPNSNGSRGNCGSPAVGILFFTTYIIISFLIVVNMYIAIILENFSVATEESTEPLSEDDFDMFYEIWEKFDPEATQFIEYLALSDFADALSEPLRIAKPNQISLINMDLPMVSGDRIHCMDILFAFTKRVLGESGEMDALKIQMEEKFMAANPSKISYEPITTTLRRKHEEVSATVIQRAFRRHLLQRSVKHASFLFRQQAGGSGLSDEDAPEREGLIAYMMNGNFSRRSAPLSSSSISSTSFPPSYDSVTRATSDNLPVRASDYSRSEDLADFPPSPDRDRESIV"}, "source": "patent US11673855B2", "about": "“Voltage gated sodium channel imaging agents” (The General Hospital Corporation, priority 2017, dated 2023)", "key": {"SCN5A": {"target": "T1, SCN5A (Rattus norvegicus, UniProt P15389)", "T1 construct": "Heart sections ([…] thickness) were prepared using a −20° C. cryostat and thaw-mounted onto gelatin-coated slides; from tissue; host or cells: rat heart (myocardium) cryosections", "assay": "Ex vivo F-18 autoradiography of rat myocardium", "assay_type": "binding", "details": "competition ligands at the same concentration against the 18F tracer", "experimental": "Heart sections ([…] thickness) were prepared using a −20° C. cryostat and thaw-mounted onto gelatin-coated slides. The slides were stored at −20° C. until the day of the experiment. […] Individual images of sections were cropped using ImageJ with no additional adjustment to color levels/thresholds. The experimental setup was designed such that both baseline and competition experiments contained the same amount of radioactivity and were imaged on the same screen. […] For variation of washing times, the incubation was held constant at 15 min."}, "rat myocardium": {"tested_on": "rat myocardium", "assay": "Rodent PET-CT imaging of the myocardium, single bolus and bolus+infusion, with lidocaine block", "assay_type": "in vivo", "experimental": "Male Sprague-Dawley rats (400-500 g) were anesthetized with inhalational isoflurane (Forane) (3% in a carrier of 1.5-2 L/min medical oxygen for induction and 2% isoflurane for maintenance of anesthesia during the scan). Lateral tail vein catheters were placed for intravenous (i.v.) injection of the compounds. Two rats were arranged head-to-head in a Triumph Trimodality PET/CT/SPECT scanner (Gamma Medica, Northridge, Calif.) or a MicroPET P4 scanner. […] Dynamic PET acquisition was performed over 45 min and was followed by computed tomography (CT) for anatomic coregistration and attenuation correction. […] Reconstructed images were exported from the scanner in DICOM format along with an anatomic CT for rodent studies. These files were imported to AMIDE and Gaussian filtered (kernel size=15, fwhm=1.5 mm). Regions of interest (ROIs) were drawn manually at the lung and myocardium guided by high-resolution CT structural images and summed PET data. Time-activity-curves (TACs) were exported in terms of decay corrected activity per unit volume at specified time points with gradually increasing intervals."}}}
{"smiles": "CCN(CC)CC(=O)Nc1c(C)cccc1C", "note": "[lidocaine]", "values": [{"measurement": "level of non-specific / non-displaceable binding (BNS) as competition ligand", "setting": "SCN5A", "value": "same level of non-displaceable binding"}, {"measurement": "signal to background ratio (myocardium to lung)", "setting": "rat myocardium; 5.0 mg/kg lidocaine i.v. 5 min before tracer, complete block", "value": 1}, {"measurement": "IC50", "setting": "rat myocardium; Rattus norvegicus, assuming blood volume 30 mL, BV=0.06×BW+0.77, read-out: in vivo IC50 converted to concentration", "value": 40, "unit": "µM"}]}
